{"sequences": {"note": "Chains of the proteins cited; added tags and fusions are not shown. Residues count along the entry.", "UniProt P42081, residues 24-247": "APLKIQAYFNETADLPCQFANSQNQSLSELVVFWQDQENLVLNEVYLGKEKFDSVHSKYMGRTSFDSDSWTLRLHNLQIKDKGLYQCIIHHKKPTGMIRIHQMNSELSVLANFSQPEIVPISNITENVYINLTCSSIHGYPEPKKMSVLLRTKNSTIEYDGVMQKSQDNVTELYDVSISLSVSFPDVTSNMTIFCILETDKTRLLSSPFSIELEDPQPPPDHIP", "UniProt O01949, residues 20-273": "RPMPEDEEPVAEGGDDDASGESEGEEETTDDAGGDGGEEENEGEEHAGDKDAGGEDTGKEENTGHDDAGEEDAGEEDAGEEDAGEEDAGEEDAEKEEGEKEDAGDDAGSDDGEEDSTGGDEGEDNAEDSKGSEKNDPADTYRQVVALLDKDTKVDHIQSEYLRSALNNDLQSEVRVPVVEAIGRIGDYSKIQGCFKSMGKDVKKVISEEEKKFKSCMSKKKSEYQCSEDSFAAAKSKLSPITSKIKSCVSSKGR"}, "source": "paper PMC9484696", "key": {"[1]": {"target": "human CD86 receptor bait protein with Fc-tag (human) (UniProt P42081)", "assay": "affinity purification with mass spectrometry; Fc-tagged receptor baits on protein A beads (TLR4 with 6XHis on nickel beads) incubated with precleared Ae. aegypti salivary gland extract at 4°C for 1 h, washed with PBS; in a second set-up the extract met the receptor first and then the beads; bands cut from SDS-PAGE and identified by mass spectrometry; only the target purified"}, "[2]": {"target": "T1, human CD14 receptor bait protein with Fc-tag (human) (UniProt P08571)", "T1 sequence": "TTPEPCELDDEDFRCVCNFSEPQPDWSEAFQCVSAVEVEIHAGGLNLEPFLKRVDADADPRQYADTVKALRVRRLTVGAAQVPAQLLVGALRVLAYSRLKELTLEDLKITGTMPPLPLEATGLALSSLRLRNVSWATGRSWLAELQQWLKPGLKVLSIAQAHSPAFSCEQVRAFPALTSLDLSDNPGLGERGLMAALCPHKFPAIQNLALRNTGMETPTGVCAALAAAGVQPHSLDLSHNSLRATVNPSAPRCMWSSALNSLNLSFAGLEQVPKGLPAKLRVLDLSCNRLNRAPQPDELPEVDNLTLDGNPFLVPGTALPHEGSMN", "assay": "affinity purification with mass spectrometry; Fc-tagged receptor baits on protein A beads (TLR4 with 6XHis on nickel beads) incubated with precleared Ae. aegypti salivary gland extract at 4°C for 1 h, washed with PBS; in a second set-up the extract met the receptor first and then the beads; bands cut from SDS-PAGE and identified by mass spectrometry; only the target purified"}}, "note": "These are yes or no findings as the source states them, for the method shown. In cells and extracts the contact can be indirect. Here binding means that the protein was enriched with, or labelled near, the bait; the list need not be complete. For some assays here: Where a sequence is shown, tags or fusion partners need not be part of it."}
{"substance": "Aegyptin (AAEL010235), from salivary gland extract (from UniProt O01949 20-273)", "values": [{"measurement": "binding", "setting": "[1]", "value": "binds"}, {"measurement": "binding", "setting": "[2]", "value": "binds"}]}
